In US8829028B2, “5-HT4 receptor antagonists for the treatment of heart failure” (Serodus AS, priority 2002, dated 2014):
For at least one compound, name, drawing or mass did not settle the structure.

System: papillary muscles from Chronic heart failure rats
Assay: Inotropic and lusitropic response of isolated papillary muscles from post-MI Chronic heart failure rats (organ bath, 1 Hz)
Assay type: cell-based, rat
Description: Male, Wistar rats (Mollegaard Breeding and Research Centre, Skensved, Denmark), weighing about 320 g were intubated and ventilated with 68% N2O, 29% O2 and 2-3% Isofluran (Abbot Laboratories, USA). An extensive myocardial infarction (MI) was induced by a proximal ligation of the left coronary artery. Six weeks later the rats were anaesthetized and ventilated on the respirator with 2.2% Isofluran. Left ventricular pressures were measured (Sjaastad et al., 2000, J. Appl. Physiol, 89: 1445-1454), and Chronic heart failure rats were included in the study if left ventricular end diastolic pressure (LVEDP) was >15 mm Hg. […] The sham-operated animals (SHAM) were subjected to the same surgical procedure but the coronary artery was not ligated.
Hearts were isolated from the anaesthetized animals (see above) and carefully dissected free of connective tissue and transferred to ice cold 0.9% NaCl and weighed. The aorta was cannulated, and the coronaries were perfused at 31° C. with a relaxing solution containing: (mmol/l) NaCl 118.3; KCl 3.0; CaCl2 0.5; MgSO4 4.0; KH2PO4 2.4; NaHCO3 24.9; glucose 10.0; mannitol 2.2 and equilibrated with 95% O2/5% CO2 at 31° C. (pH 7.4). […]
The muscles were field stimulated with alternating polarity at 1 Hz with impulses of 5 msec duration and current about 20% above individual threshold (10-15 mA, determined in each experiment). […] The force was recorded and analysed as previously described (Skomedal et al., 1997, J. Pharmacol. Exp. Ther. 280: 721-729). […] Averaged contraction-relaxation cycles (CRC) were calculated for different experimental periods, and these cycles were used to determine descriptive parameters like maximal development of force (dF/dt)max, time to peak force (TPF) and time to relaxation to 20% level (TR2O). Relaxation time (RT) was calculated as TR2O-TPF. […] Lusitropic responses were expressed as reduction in RT. […]
The responses for each concentration of agonist were generally calculated as percent of maximal response. […] The horizontal positioning of the concentration-response curves was expressed as pEC50-values (=−log EC50).

[1] = 30 μmol/l carbachol after 10 μmol/l serotonin

C[N+](C)(C)CCOC(N)=O [Carbachol, carbamylcholine]
time to reversal of the serotonin response [1]: 2 to 3 s | time to reversal of the serotonin response (alternative printed) [1]: 1 to 2 min | effect on serotonin-induced changes of TPF, TR2O and RT (contraction-relaxation cycle characteristics) (cumulative 10 μmol/l serotonin, 30 μmol/l carbachol, 1 μmol/l atropine): partially reversed
